This assay addresses Angiomotin-Like-2 (AmotL2), endogenous in HaCaT human keratinocytes (human (endogenous in HaCaT)) (UniProt Q9Y2J4). Kind of assay: co-IP; HaCaT cell lysate, control siRNA; lysis buffer 50 mM Tris-HCl pH 7.6, 150 mM NaCl, 1 mM EDTA, 1% Nonidet P40; precipitated with rabbit antibody against the C-terminal motif of human amotL2, Protein G Sepharose, 4 °C; western blot.

Sequences of proteins named here, by UniProt entry; tags and fusion partners are left off.
UniProt Q9Y2J4: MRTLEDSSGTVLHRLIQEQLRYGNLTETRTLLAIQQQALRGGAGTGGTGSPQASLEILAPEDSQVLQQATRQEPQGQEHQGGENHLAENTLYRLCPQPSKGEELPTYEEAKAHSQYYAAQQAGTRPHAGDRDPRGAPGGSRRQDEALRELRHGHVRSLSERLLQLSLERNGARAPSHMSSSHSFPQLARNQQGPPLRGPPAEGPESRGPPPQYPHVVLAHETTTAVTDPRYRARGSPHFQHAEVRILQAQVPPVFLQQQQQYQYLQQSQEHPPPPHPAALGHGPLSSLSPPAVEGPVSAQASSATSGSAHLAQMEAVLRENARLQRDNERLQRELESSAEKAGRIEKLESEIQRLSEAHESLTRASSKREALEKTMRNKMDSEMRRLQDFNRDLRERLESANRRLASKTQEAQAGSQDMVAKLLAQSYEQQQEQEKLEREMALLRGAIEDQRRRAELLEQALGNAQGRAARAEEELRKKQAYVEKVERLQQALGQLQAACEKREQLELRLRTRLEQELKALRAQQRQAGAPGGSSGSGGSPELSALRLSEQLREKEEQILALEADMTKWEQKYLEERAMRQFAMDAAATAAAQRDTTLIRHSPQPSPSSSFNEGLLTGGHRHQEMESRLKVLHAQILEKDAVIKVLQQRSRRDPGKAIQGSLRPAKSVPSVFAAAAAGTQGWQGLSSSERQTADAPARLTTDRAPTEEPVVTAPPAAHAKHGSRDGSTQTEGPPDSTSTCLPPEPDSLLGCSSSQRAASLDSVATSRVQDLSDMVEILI
UniProt Q8TEW0: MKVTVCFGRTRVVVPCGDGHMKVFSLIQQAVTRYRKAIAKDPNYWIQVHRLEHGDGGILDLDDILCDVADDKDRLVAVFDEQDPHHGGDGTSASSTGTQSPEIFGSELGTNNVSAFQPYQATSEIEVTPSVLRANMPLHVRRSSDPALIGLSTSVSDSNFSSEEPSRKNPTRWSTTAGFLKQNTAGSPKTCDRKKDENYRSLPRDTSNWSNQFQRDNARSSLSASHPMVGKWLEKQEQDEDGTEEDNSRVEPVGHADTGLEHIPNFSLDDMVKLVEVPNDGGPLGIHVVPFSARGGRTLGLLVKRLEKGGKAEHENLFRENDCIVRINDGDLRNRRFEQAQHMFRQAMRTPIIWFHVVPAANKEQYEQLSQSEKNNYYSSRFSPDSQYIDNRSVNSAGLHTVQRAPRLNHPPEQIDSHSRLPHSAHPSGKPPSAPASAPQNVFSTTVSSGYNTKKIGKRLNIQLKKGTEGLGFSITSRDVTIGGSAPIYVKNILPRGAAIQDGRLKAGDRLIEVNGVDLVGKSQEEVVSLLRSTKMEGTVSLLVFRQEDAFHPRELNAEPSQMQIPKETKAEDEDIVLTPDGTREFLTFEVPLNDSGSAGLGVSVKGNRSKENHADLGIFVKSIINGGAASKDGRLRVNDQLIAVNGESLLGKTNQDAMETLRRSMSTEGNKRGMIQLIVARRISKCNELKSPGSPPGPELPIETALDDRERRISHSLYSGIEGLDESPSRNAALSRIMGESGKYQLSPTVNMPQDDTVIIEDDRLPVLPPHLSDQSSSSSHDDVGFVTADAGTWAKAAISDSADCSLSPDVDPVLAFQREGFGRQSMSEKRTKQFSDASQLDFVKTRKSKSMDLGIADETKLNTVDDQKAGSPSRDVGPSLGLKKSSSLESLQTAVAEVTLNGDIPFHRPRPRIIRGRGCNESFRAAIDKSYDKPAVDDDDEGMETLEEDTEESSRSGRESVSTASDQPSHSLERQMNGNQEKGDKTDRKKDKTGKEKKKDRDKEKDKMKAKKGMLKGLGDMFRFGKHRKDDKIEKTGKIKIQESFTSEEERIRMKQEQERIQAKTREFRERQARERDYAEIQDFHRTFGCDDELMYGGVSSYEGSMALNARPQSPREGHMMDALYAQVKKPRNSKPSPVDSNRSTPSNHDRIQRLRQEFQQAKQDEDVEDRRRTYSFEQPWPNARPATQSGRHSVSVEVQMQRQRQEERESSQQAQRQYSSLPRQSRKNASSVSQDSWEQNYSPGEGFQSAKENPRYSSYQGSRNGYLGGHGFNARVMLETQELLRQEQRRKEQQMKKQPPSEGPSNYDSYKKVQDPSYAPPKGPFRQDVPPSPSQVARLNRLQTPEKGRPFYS

Data on one substance can be found in article PMC5548744.

These are yes or no findings as the source states them, for the method shown. Binding seen in cells or lysates may run through a third protein. Some results given as binding are weak or reduced against the parent protein; the word gives no strength.

As to “Par3, endogenous in HaCaT cells (from UniProt Q8TEW0 1-1356)”, the binding result was “binds”.
